According to patent US20130225478A1 (YEDA RESEARCH AND DEVELOPMENT, published 2013):
These are yes or no findings as the source states them, for the method shown. In cells and extracts the contact can be indirect. Some results given as binding are weak or reduced against the parent protein; the word gives no strength.

T1: TLR1 protein (mouse (RAW264.7 murine macrophages)) (UniProt Q9EPQ1)
T1 sequence (looked up): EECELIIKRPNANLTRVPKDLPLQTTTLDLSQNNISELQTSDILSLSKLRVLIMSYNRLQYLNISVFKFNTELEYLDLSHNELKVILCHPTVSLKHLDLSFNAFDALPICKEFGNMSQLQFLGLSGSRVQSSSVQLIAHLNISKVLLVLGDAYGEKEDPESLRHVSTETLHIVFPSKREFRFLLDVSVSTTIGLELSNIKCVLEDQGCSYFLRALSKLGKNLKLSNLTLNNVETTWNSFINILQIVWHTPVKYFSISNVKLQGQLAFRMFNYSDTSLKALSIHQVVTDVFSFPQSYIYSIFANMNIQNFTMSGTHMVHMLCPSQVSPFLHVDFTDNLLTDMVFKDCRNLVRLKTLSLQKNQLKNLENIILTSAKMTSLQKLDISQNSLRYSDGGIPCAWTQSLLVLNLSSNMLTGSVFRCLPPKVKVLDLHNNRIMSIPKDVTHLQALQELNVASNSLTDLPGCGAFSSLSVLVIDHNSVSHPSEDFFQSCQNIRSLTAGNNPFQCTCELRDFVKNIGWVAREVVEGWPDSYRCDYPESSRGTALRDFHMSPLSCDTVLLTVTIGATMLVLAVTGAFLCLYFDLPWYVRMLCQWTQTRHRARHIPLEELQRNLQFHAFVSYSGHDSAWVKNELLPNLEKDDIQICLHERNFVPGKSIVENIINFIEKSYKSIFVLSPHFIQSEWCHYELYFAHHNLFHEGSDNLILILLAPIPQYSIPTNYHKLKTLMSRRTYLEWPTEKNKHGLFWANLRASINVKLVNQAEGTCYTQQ


How the values were obtained:
[1] = molecular target: T1, TLR1 protein (mouse (RAW264.7 murine macrophages)); assay: co-immunoprecipitation from RAW264.7 lysate, rhodamine-labeled peptide (FIG. 5A)
[2] = molecular target: T1, TLR1 protein (mouse (RAW264.7 murine macrophages)); assay: co-immunoprecipitation from RAW264.7 lysate, 10 µM rhodamine-labeled peptide, fluorescent scan of SDS-PAGE

| binding [1] | binding [2] | Binder |
| --- | --- | --- |
| binds | binds | KKLILLVGALAHHFHGLWKK (N-terminal rhodamine (TAMRA) label; synthesized on Rink amide MBHA resin) [mTLR2 TM C′-CtoA] |
| binds | binds | KKALVSGVAAALLLLILLVGKK (N-terminal rhodamine (TAMRA) label; synthesized on Rink amide MBHA resin) [mTLR2 TM N′-CtoA] |
